Results as given in the supplement of paper PMC7666118.
This is one part of the list.

Amino acid sequences for entries named in this document (tags omitted). A change or cut given only in a name is not applied to a line headed by its entry.
UniProt O15382: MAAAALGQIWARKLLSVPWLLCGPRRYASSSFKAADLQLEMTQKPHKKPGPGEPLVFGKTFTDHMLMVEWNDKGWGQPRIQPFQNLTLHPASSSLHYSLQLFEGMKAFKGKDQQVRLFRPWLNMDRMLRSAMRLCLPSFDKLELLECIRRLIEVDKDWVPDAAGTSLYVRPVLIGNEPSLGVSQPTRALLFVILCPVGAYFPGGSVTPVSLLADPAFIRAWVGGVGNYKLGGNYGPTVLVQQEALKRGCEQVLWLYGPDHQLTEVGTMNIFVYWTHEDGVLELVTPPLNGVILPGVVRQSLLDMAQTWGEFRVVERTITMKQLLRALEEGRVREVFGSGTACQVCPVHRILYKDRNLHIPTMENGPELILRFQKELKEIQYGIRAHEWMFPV
UniProt O95260: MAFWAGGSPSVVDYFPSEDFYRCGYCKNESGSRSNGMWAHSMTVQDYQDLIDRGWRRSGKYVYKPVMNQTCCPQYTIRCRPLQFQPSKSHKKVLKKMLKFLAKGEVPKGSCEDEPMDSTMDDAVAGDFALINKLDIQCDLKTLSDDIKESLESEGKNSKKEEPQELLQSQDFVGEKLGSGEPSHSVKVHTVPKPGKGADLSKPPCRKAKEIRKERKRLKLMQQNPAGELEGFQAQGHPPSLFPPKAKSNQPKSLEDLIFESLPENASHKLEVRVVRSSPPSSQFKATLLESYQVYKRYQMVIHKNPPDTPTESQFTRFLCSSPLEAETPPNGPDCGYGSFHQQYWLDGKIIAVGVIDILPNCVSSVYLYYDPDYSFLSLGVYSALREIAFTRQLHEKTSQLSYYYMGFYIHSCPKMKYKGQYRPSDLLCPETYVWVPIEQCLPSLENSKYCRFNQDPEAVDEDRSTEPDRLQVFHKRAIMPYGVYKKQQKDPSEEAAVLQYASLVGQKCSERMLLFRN
UniProt Q12797: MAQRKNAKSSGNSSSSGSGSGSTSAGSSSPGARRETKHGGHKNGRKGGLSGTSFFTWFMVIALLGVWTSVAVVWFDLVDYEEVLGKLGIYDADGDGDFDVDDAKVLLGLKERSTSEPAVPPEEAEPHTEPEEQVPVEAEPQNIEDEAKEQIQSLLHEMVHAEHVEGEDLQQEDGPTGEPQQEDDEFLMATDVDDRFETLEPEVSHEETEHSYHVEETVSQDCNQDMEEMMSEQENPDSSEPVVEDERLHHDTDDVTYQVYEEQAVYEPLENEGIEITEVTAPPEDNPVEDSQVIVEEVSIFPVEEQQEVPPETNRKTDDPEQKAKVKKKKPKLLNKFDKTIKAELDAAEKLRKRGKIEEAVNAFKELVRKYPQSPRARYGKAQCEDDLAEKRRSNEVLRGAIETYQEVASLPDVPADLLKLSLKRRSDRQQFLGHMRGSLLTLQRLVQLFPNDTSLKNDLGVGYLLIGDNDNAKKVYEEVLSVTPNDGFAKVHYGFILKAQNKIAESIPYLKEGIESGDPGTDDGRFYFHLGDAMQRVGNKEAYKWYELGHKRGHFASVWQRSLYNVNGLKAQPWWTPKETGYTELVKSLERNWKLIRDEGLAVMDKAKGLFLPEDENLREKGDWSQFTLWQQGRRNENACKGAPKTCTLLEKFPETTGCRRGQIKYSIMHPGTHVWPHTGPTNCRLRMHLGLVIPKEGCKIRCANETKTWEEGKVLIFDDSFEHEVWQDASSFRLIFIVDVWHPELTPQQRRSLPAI
UniProt P06576, whole entry: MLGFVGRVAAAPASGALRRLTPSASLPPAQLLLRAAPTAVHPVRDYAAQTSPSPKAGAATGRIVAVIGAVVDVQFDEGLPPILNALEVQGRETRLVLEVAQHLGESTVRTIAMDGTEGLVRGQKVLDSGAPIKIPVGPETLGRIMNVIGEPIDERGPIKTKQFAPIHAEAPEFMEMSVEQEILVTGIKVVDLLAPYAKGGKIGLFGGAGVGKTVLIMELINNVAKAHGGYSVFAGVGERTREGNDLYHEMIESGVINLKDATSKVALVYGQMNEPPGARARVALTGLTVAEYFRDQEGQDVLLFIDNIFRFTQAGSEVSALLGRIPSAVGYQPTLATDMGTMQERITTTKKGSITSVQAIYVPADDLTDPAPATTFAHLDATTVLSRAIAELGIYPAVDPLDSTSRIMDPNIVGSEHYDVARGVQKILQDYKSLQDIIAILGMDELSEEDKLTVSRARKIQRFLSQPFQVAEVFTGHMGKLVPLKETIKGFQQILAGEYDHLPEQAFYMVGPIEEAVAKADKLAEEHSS
UniProt Q676U5: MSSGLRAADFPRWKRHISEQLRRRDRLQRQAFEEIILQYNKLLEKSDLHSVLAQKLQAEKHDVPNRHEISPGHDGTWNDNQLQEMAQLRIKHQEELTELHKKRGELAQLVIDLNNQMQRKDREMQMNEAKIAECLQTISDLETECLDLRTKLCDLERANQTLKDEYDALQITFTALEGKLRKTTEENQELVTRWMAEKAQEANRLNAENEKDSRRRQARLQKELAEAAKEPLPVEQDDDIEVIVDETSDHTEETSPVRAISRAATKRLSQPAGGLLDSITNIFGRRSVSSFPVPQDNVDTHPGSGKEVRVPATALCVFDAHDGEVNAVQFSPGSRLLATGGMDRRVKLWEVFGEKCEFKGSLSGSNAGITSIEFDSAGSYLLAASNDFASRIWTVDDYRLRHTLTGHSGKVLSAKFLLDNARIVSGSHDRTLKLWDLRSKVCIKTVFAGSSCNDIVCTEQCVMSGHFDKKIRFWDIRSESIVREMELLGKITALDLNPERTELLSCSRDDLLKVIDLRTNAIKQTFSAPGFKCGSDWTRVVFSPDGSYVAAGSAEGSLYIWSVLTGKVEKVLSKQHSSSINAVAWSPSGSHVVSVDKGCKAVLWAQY
UniProt Q9NQS1: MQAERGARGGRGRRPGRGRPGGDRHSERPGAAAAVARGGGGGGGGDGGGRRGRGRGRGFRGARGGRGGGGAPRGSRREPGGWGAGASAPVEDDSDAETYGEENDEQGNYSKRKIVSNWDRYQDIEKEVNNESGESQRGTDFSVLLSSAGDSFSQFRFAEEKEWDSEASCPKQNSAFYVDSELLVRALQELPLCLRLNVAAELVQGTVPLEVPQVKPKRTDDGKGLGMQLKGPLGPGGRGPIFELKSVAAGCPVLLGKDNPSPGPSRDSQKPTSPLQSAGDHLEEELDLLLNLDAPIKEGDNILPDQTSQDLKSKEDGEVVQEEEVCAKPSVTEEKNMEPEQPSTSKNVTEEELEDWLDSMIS
UniProt O75915: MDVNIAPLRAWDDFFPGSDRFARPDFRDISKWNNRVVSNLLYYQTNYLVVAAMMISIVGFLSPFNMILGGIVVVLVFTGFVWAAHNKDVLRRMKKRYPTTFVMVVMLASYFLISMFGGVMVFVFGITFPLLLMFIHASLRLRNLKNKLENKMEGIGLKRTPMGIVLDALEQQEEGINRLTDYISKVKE
UniProt Q9BZE9, whole entry: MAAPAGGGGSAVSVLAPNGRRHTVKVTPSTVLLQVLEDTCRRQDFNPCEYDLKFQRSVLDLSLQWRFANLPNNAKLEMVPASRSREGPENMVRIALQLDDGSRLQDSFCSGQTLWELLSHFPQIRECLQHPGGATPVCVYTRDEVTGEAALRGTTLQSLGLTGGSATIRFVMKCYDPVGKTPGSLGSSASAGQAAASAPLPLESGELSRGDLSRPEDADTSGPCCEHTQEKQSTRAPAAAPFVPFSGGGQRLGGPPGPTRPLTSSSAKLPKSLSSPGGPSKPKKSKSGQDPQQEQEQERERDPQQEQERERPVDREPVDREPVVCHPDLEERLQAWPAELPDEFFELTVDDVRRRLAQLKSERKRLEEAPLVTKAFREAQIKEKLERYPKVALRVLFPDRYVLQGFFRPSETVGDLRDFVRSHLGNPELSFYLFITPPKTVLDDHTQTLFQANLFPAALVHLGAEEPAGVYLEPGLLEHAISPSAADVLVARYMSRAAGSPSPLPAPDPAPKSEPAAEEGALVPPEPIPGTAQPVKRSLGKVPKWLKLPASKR
UniProt Q5JSZ5: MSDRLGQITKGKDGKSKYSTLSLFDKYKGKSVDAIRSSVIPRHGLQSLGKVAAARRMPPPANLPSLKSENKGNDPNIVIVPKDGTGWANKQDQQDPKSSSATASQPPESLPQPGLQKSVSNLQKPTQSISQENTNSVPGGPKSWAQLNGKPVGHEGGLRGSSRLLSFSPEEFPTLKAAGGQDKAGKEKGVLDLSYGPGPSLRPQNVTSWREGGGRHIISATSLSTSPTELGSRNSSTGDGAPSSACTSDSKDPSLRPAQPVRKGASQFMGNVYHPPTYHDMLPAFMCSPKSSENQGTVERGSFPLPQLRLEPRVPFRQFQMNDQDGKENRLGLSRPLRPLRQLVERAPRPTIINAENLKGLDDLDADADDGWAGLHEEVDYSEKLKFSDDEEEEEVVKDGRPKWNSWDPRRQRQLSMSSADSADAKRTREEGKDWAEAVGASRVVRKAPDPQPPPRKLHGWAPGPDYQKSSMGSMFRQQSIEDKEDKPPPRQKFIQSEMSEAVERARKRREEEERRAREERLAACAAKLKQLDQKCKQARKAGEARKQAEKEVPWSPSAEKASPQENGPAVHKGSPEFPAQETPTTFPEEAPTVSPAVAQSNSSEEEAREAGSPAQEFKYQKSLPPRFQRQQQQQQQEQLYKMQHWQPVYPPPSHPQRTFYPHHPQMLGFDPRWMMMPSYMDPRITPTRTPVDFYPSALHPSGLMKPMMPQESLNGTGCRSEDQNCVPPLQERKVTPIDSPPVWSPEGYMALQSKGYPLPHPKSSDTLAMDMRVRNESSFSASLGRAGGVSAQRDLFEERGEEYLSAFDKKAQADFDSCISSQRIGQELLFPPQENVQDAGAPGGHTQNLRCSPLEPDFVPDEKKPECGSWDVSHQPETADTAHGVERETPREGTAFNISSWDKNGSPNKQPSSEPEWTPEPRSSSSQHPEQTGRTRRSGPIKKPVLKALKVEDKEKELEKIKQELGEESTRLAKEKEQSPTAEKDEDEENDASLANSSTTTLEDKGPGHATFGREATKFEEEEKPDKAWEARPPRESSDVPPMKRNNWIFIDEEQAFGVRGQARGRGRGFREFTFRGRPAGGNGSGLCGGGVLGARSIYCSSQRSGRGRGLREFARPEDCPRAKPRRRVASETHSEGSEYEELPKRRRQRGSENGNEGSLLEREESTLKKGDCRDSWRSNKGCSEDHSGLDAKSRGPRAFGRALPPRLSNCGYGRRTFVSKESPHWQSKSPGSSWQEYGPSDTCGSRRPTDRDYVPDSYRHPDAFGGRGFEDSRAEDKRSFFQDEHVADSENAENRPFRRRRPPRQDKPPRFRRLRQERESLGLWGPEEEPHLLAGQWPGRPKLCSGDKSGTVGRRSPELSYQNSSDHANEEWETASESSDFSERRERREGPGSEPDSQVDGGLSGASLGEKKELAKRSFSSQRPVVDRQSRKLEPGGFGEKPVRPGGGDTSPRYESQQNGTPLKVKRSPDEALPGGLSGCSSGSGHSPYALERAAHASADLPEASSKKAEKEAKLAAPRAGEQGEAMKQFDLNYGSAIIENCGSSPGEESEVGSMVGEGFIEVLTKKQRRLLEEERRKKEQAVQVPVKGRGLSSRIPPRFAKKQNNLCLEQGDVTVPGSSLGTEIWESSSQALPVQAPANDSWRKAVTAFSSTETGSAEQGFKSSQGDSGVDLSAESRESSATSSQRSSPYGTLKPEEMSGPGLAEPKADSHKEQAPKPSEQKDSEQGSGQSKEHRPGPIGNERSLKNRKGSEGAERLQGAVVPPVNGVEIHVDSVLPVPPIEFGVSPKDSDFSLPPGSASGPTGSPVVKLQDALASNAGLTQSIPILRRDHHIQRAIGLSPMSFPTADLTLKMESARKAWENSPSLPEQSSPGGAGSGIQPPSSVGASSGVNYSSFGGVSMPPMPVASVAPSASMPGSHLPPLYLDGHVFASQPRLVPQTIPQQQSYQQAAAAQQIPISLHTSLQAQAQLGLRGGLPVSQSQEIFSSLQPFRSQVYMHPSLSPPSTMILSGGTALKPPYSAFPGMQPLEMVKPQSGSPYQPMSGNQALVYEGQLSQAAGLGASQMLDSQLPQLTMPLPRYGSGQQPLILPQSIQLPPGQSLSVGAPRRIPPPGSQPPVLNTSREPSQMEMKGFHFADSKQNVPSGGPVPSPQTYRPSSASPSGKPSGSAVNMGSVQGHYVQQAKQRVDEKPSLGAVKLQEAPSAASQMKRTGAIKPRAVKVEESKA
UniProt Q9HBH7: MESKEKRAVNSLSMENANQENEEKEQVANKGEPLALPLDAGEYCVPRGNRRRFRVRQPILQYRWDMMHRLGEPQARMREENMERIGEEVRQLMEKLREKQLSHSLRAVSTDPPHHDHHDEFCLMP
UniProt Q9NVP2, whole entry: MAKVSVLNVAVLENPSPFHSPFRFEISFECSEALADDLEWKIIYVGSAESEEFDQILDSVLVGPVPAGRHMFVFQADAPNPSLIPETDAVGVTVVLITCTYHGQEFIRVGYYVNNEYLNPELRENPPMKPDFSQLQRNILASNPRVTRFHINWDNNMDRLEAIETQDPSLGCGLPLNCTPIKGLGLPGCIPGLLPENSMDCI
UniProt P61769, whole entry: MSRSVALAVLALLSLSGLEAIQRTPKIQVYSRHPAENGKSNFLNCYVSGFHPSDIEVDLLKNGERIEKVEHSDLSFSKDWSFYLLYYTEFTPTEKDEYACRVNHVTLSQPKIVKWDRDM

compound: COc1ccc(Cn2ccc3ccc(C(=O)NO)cc32)cc1; test: dose-dependent thermal stabilisation call (2D-TPP, DLPTP, 10% FDR) (binary (1 = stabilised)); higher = stabilised by the compound; conditions: system: HL-60 intact cells; concentration range 0.04-10 µM

Target | dose-dependent thermal stabilisation call
BXDC1 (UniProt Q9H7B2) | inactive: 0
BCAT2 (UniProt O15382) | inactive: 0
ATE1 (UniProt O95260) | inactive: 0
ASPH (UniProt Q12797) | inactive: 0
ATP8A1 (UniProt Q9Y2Q0) | inactive: 0
ATF7 (UniProt P17544) | inactive: 0
ATP5B (UniProt P06576) | inactive: 0
ARPC5L (UniProt Q9BPX5) | inactive: 0
BRIP1 (UniProt Q9BX63) | inactive: 0
ATG16L1 (UniProt Q676U5) | inactive: 0
AVEN (UniProt Q9NQS1) | inactive: 0
BRE (UniProt Q9NXR7) | inactive: 0
BRAP (UniProt Q7Z569) | inactive: 0
ATP5C1 (UniProt P36542) | inactive: 0
ASCC3 (UniProt Q8N3C0) | inactive: 0
ATRX (UniProt P46100) | inactive: 0
BAZ2A (UniProt Q9UIF9) | inactive: 0
ARL6IP5 (UniProt O75915) | inactive: 0
BECN1 (UniProt Q14457) | inactive: 0

Target | dose-dependent thermal stabilisation call
ASPSCR1 (UniProt Q9BZE9) | inactive: 0
BAT2L (UniProt Q5JSZ5) | inactive: 0
BYSL (UniProt Q13895) | inactive: 0
BCL2L11 (UniProt O43521) | inactive: 0
ARSB (UniProt P15848) | inactive: 0
ATP6V0A1 (UniProt Q93050) | inactive: 0
BIRC6 (UniProt Q9NR09) | inactive: 0
ATIC (UniProt P31939) | inactive: 0
B3GALT6 (UniProt Q96L58) | inactive: 0
ATL3 (UniProt Q6DD88) | inactive: 0
ARMC9 (UniProt Q7Z3E5) | inactive: 0
BEX1 (UniProt Q9HBH7) | inactive: 0
ASF1B (UniProt Q9NVP2) | inactive: 0
BCAT1 (UniProt P54687) | inactive: 0
ATRN (UniProt O75882) | inactive: 0
B2M (UniProt P61769) | inactive: 0
BTBD1 (UniProt Q9H0C5) | inactive: 0
C12ORF29 (UniProt Q8N999) | inactive: 0

For reference, some entries already given:
Target | dose-dependent thermal stabilisation call
ATG16L1 (UniProt Q676U5) | inactive: 0
AVEN (UniProt Q9NQS1) | inactive: 0
